By pKi is commonly meant −log10 of the Ki, conventionally taken in molar units. Low readings indicate a large Ki, high ones a small Ki.

pKi: −log10 of the molar value.

The assay deals with CpNce103p (Candida parapsilosis, UniProt G8B6R8). Nature of the assay: biochemical.

For the compound `CC(=O)Nc1nnc(S(N)(=O)=O)s1` [Compound 1, Acetazolamide, reference compound], the pKi was 5.92.

The values are drawn from publication PMC12664589 (Journal of Structural Biology: X, 2025).
